Measurements as given in PMC12043087.
Results are given in words; binding and its absence hold for the method and conditions named. Binding seen in cells or lysates may run through a third protein. Some entries that bind do so weakly or less than the wild type.

Sequences of proteins named here, by UniProt entry; tags and fusion partners are left off.
UniProt Q13547: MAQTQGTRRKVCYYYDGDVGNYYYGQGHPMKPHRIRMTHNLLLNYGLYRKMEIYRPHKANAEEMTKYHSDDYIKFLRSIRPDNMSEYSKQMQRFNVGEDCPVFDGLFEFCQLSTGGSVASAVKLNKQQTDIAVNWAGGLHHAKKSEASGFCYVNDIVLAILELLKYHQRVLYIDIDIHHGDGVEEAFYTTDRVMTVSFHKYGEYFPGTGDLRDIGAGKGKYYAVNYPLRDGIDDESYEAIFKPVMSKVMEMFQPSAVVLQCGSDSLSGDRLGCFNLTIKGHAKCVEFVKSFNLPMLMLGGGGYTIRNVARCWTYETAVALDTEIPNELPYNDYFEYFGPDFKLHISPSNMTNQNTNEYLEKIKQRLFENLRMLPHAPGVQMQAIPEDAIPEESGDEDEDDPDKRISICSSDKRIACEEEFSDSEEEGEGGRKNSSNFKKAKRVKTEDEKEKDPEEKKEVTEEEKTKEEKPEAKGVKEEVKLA
UniProt Q92769: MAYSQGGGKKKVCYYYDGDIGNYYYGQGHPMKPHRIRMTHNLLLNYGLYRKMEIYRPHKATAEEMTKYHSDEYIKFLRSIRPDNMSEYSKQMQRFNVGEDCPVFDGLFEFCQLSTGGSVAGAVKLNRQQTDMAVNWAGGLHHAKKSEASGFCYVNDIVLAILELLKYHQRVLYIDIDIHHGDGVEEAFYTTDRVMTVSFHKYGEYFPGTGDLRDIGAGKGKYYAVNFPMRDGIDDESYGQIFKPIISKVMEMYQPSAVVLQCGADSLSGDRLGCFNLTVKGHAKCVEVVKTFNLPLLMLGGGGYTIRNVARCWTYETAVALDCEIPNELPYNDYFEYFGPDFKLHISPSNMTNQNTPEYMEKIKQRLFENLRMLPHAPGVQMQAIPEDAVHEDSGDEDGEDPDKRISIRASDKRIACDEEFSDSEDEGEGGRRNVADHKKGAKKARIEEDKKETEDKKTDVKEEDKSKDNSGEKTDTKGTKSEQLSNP

Target: T1, SMAD nuclear interacting protein 1 (SNIP1) (human (endogenous in hVSMCs)) (UniProt Q8TAD8)
T1 sequence: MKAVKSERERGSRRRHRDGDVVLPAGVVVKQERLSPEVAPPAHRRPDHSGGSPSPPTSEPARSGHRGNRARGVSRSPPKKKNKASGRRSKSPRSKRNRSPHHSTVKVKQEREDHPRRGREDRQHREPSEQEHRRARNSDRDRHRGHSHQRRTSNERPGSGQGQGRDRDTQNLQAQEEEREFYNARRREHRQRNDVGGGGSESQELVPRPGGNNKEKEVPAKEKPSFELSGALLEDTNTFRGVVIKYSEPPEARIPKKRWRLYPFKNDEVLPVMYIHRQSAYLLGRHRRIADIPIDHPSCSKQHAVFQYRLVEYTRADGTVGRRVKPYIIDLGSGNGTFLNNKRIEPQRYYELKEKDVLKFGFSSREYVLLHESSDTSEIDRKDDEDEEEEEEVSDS
Assay: co-IP; endogenous proteins of hVSMCs; antigen sample/antibody mixture on Protein A/G magnetic beads, room temperature 1 hour, low-pH elution, Western blot; TET2 with HDAC1/2 also tested in cells pretransfected with Lenti-sh-Scr or Lenti-sh-SNIP1

| Substance | binding |
| --- | --- |
| histone deacetylase 1 (HDAC1) (from UniProt Q13547 1-482) | binds |
| histone deacetylase 2 (HDAC2) (from UniProt Q92769 1-488) | binds |
